# Reference: article PMC6351106
# By UniProt entry, the sequences of proteins in these tests, tags left out.
# UniProt Q969U6: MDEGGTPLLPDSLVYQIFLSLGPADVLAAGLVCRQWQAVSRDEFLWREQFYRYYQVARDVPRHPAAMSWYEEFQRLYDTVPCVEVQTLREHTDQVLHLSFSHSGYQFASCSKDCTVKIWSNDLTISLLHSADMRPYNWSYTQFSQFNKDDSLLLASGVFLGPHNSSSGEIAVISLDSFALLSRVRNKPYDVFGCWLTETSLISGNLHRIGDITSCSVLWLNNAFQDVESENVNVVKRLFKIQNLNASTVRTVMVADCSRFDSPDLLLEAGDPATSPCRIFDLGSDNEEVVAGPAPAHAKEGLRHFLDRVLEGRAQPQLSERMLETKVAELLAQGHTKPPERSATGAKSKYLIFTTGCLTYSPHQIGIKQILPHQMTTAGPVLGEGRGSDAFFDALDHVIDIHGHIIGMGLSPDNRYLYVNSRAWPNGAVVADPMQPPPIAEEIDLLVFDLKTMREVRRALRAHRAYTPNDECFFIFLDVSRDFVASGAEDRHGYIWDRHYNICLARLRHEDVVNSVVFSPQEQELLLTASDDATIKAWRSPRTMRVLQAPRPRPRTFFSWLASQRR
# UniProt Q15436: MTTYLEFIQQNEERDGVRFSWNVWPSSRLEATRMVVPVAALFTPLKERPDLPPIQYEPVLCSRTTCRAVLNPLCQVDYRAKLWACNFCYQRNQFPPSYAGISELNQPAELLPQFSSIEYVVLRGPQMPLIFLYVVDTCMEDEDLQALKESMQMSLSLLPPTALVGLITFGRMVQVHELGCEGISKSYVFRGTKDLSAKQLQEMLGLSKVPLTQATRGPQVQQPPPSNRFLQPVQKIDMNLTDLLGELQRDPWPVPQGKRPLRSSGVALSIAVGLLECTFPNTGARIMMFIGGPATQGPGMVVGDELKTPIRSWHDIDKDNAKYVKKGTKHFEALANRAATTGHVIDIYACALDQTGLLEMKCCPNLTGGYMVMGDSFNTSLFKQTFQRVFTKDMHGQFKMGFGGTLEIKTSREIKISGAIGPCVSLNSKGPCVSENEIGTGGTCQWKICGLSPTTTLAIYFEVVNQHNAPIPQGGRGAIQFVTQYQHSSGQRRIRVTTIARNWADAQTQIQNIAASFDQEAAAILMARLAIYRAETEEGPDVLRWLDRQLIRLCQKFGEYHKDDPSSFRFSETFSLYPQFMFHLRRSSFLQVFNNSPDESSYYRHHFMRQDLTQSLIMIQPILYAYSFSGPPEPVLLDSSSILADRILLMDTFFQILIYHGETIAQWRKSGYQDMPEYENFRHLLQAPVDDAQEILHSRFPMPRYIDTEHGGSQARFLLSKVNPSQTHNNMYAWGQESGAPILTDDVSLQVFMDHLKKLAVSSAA
# No constants are given. Whether binding was seen depends on the method and setting. In cells and extracts the contact can be indirect. Some entries that bind do so weakly or less than the wild type. For some of these results: Where a sequence is shown, tags or fusion partners need not be part of it.
# Assays:
# [1] = target: T1, SEC23B peptide (a.a. 180-194) (human); experiment: pull-down; peptides conjugated to beads, in vitro binding with FBXW5 in vitro transcribed/translated in rabbit reticulocyte system; bound FBXW5 detected by immunoblotting; only the target purified
# T1 sequence (peptide): CEGISKSYVFRGTKD
# [2] = target: T1, SEC23B peptide (a.a. 180-194) (human); experiment: pull-down; beads coupled to the SEC23B peptide (or unconjugated beads) incubated with whole cell extracts of HEK293T; washed with lysis buffer, eluted, immunoblotting; only the target purified
# SEC23B(100-767) (human) = SEC23B(100-767) (human) (UniProt Q15437); experiment: co-IP; affinity purification of Streptag-tagged bait on Streptactin beads from transfected HEK293T extracts (50 mM Tris pH 7.4, 150 mM NaCl, 2 mM EDTA, 10% glycerol, 0.5% NP-40; 2 h at 4 C), immunoblotting; in some panels MLN4924 for 4 h, EBSS starvation or co-expressed ULK1
# SEC23B(400-767) (human) = SEC23B(400-767) (human) (UniProt Q15437); experiment: as above
# [3] = target: Streptag-FLAG-tagged SEC23B(S186A) (human) (UniProt Q15437); experiment: as above
# [4] = target: Streptag-FLAG-tagged SEC23B(S186D) (human) (UniProt Q15437); experiment: as above
# [5] = target: FLAG-HA-tagged FBXW5 (human) (UniProt Q969U6); experiment: co-IP; immunoprecipitation with FLAG (FLAG-M2) beads from transfected HEK293T extracts, immunoblotting; Figure 1F untreated or MLN4924 for 4 h
substance,measurement,setting,value
"FBXW5, in vitro transcribed/translated (from UniProt Q969U6 1-566)",binding,[1],binds
endogenous FBXW5 (from UniProt Q969U6 1-566),binding,[2],binds
same,binding,SEC23B(100-767) (human),binds
same,binding,SEC23B(400-767) (human),no binding
same,binding,[3],binds
same,binding,[4],no binding
endogenous SEC23A (from UniProt Q15436 1-765),binding,[5],no binding
